PubChem BioAssay AID1224830 | NIAID – 2016
In all, the deposit lists about 18,000 reagents; below is a part drawn at random. Over the whole deposit, about 2,900 (16%) are marked active. 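Calls are made per well; low scores hint the gene aids the LPS response, high scores that it dampens it.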 Repeated entries: four replicate wells of each siRNA pool.

Test: 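Genes whose knock-down alters the TNF-alpha reporter response to LPS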 (primary screen)
Cells: human THP-1 monocytic leukaemia cells, TNF dual-luciferase reporter clone, PMA-differentiated to macrophage-like cells
Reagents: siRNA pool against human genes, 50 nM
Time to read-out: LPS for 4 h, given about 3 days after siRNA transfection
Conditions: bacterial LPS (TLR4 ligand), 10 ng/ml
Measured: 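Ratio of firefly to renilla light, scaled to the plate median and expressed as a robust z-score per replicate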
Scale: TNF reporter robust z-score: higher = stronger TNF reporter response to LPS
Rule for the call: 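a well is active when its z-score exceeds 2.8 or falls below -1.5; control wells carry no call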

Silencing of DHX40 came out at: TNF reporter robust z-score -0.85; inactive.
For DHX40 the deposit lists TNF reporter robust z-score -0.65; inactive.
With knock-down of DHX40, the screen gave TNF reporter robust z-score -0.94; inactive.
For DHX40, the entry reads TNF reporter robust z-score -0.68; inactive.
With knock-down of ZMYND19, the record shows TNF reporter robust z-score -0.48; inactive.
ZMYND19 gave TNF reporter robust z-score -0.81; inactive.
ZMYND19 showed TNF reporter robust z-score -0.15; inactive.
Silencing of ZMYND19 resulted in: TNF reporter robust z-score -0.33; inactive.
After knock-down of ZNF653, the record shows TNF reporter robust z-score -0.16; inactive.
For ZNF653, the entry reads TNF reporter robust z-score -0.59; inactive.
ZNF653 gave TNF reporter robust z-score -1.33; inactive.
Silencing of ZNF653 came out at: TNF reporter robust z-score -0.11; inactive.
After knock-down of ZIC3, the record shows TNF reporter robust z-score 0.9; inactive.
With knock-down of ZIC3, the record shows TNF reporter robust z-score 1.15; inactive.
With knock-down of ZIC3 the results were TNF reporter robust z-score 0.12; inactive.
Against ZIC3, the values are TNF reporter robust z-score 1.54; inactive.
With knock-down of TCP10L3, the record shows TNF reporter robust z-score -0.27; inactive.
Depletion of TCP10L3 gave: TNF reporter robust z-score -0.92; inactive.
TCP10L3 gave TNF reporter robust z-score -0.64; inactive.
After knock-down of TCP10L3, the record shows TNF reporter robust z-score 0.5; inactive.

Ordered by “TNF reporter robust z-score” (high to low): some entries from above.
TCP10L3: TNF reporter robust z-score = -0.27; Call = inactive
TCP10L3: TNF reporter robust z-score = -0.92; Call = inactive
